Assay results as given in patent publication US20220041706A1.
No constants are given. Whether binding was seen depends on the method and setting. Some results given as binding are weak or reduced against the parent protein; the word gives no strength.

By UniProt entry, the sequences of proteins in these tests, tags left out. Where a name states a change or a piece, a line headed by the entry shows the natural chain unless it says otherwise.
UniProt O95750: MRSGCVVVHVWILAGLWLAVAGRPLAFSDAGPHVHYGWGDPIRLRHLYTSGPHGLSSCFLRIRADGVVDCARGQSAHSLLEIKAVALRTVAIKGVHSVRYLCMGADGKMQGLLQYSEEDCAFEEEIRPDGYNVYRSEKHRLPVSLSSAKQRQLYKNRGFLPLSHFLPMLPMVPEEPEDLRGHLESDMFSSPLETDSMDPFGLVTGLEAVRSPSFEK

Target: T1, FGFR4-hFc (UniProt P22455)
T1 sequence (looked up): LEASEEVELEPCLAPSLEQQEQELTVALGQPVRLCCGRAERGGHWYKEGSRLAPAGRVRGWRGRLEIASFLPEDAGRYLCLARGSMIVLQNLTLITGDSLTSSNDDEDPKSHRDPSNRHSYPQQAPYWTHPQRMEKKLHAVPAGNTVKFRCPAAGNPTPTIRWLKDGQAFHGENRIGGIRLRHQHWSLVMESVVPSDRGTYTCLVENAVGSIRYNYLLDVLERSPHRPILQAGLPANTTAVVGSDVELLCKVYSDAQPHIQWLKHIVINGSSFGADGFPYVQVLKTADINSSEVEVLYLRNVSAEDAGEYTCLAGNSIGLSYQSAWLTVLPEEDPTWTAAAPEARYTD
Assay: SPR (Biacore), FGFR4-hFc captured, 20 µg/ml heparin

- binding: binds
Substance: FGF19^ΔNT, N-terminus deletion variant of FGF19 (residues Arg43-Lys216 of SEQ ID NO: 1), C-terminal His-Avi tag (from UniProt O95750 43-216) (ligand)
